Experimental data published in patent publication US8623442B2, “Palatable beverages and compositions with cocoa extract” (Mars, Incorporated., priority 2010, dated 2014).

Assay: Palatability testing with sweeteners, sensory evaluation by expert tasters
Details: sweetener 40 mg/240 ml water in Example 1 type mix; expert tasters n=2

Question: Which results are given for thaumatin [taumatin]?
Answer: astringency / bitterness (sensory evaluation): reduced astringency; sweetness (sensory evaluation): failed to impart sweetness
